Some of these results come from one statement about several compounds together.
Experiment: Fluorescence response screening of purified leucine fluorescent sensors (LivK fusion proteins) to leucine
Type: biochemical, Escherichia coli
Settings: cpYFP inserted in LivK; 10 mM leucine; versus control

## Livk-cpYFP 328/329: cpYFP inserted between residues 328 and 329 of E. coli leucine binding protein LivK
  response to leucine (signal with leucine divided by signal without): more than 1.5 times

## Livk-cpYFP 329/330: cpYFP inserted between residues 329 and 330 of E. coli leucine binding protein LivK
  response to leucine (signal with leucine divided by signal without): more than 1.5 times

From patent US12436104B2, “Fluorescent probe for branched chain amino acids and use thereof” (East China University of Science and Technology, priority 2018, dated 2025)
